{"source": "patent US20200246438A1", "about": "“TARGETING GDF6 AND BMP SIGNALING FOR ANTI-MELANOMA THERAPY” (UNIVERSITY OF MASSACHUSETTS, priority 2015, published 2020)", "origin": "cited, not measured here", "system": "melanomas", "settings": "melanoma patients treated with vemurafenib; cited from earlier work", "note": "At least one compound was matched to its structure with a doubt left."}
{"compound": "CCCS(=O)(=O)Nc1ccc(F)c(C(=O)c2c[nH]c3ncc(-c4ccc(Cl)cc4)cc23)c1F", "note": "[vemurafenib]", "values": [{"measurement": "survival benefit", "value": "3-6 month"}]}
